Experimental data published in PMC7545189, “Structural characterization of the ICOS/ICOS-L immune complex reveals high molecular mimicry by therapeutic antibodies” (Nature Communications, 2020).
Results are given in words; binding and its absence hold for the method and conditions named. Some entries that bind do so weakly or less than the wild type. Sequences can lack the tags named with a protein.

Molecular target: T1, human ICOS-L ectodomain (residues 19-248), His-tagged, immobilised on Ni-NTA biosensors (human) (UniProt O75144)
T1 sequence: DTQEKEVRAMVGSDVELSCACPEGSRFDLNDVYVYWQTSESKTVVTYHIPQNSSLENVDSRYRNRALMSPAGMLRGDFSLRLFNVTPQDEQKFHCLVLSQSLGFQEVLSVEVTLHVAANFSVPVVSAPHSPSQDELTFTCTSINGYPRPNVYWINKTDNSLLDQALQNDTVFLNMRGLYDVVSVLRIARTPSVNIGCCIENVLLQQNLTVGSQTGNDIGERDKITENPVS
Test: BLI; competition: immobilised ICOS-L with ICOS or ICOS + STIM003 Fab; immobilised ICOS with ICOS-L or ICOS-L + prezalumab Fab; both purified

binding: binds
B1: human ICOS ectodomain (residues 21-138), untagged, disulfide-linked homodimer (receptor, UniProt Q9Y6W8 21-138, looked up)
chain: EINGSANYEMFIFHNGGVQILCKYPDIVQQFKMQLLKGGQILCDLTKTKGSGNTVSIKSLKFCHSQLSNNSVSFFLYNLDHSHANYYFCNLSIFDPPPFKVTLTGGYLHIYESQLCCQ
notes: human ICOS ectodomain, UniProtKB Q9Y6W8, residues 21-138; Residues of the TEV site probably remain at the C-terminus after cleavage; also called ICOS WT; ICOS disulfide-linked homodimers; source: HEK 293F, transiently transfected, purified (HisTrap Ni-NTA, TEV digestion, second Ni-NTA, Superdex 200); not shown: Venus (monomeric variant), C-terminal, cleaved; His6, C-terminal, cleaved
